Construct, isoform or probe ends are uncertain for at least one entry. For part of these data: Protein sequences can lack the tags named with them.
Assays:
Assay in all cases: activity assay
MG151-93 = system: T1, MG151-93; details: primer extension gel; protein translated in vitro; protein details: Strep, RT-RNase H trim; label: 5'-FAM primer; DNA:RNA hybrid
T1 sequence: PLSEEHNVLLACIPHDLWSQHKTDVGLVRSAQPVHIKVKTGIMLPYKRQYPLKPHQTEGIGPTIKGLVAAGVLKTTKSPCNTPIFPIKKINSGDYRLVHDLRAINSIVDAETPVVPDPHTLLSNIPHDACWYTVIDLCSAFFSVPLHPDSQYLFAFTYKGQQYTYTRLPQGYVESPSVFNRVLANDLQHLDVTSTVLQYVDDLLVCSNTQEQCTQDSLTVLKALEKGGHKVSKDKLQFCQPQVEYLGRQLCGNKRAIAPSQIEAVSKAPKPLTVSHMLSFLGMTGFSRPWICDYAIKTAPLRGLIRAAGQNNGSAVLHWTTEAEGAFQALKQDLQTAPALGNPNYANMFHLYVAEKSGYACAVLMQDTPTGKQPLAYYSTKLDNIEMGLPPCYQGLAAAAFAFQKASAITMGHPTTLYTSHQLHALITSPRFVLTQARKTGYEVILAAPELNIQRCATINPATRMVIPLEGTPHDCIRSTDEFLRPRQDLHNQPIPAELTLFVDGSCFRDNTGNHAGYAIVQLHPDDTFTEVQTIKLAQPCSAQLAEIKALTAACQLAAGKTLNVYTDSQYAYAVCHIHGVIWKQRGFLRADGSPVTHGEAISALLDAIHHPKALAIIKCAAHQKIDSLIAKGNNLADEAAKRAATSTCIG

[1] = system: MG140-8c5 (C-terminal endonuclease trim); details: primer extension; 10 mM MgCl2, 0.2 M NaCl; purified recombinant protein; label: 5'-FAM primer; DNA:RNA hybrid
MG153-5 = system: T2, MG153-5; details: primer extension gel; 3 mM MgCl2, 37 C; protein translated in vitro; protein details: N-terminal Strep; label: 5'-FAM primer; DNA:RNA hybrid
T2 sequence (limits assumed): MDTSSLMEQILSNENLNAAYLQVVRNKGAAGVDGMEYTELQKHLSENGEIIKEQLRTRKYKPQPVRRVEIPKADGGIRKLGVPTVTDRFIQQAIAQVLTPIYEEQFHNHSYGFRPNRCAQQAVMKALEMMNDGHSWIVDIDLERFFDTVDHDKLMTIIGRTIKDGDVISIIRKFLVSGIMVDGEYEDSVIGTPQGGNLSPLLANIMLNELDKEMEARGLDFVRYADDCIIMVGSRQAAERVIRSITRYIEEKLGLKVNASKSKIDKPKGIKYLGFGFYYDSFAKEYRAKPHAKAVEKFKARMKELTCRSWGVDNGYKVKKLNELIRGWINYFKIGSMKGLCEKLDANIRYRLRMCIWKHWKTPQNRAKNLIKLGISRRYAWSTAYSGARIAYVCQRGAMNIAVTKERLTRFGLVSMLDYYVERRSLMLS

MG153-45 = system: T3, MG153-45; details: primer extension gel; 3 mM MgCl2, 37 C; protein translated in vitro; protein details: N-terminal Strep; label: 5'-FAM primer; DNA:RNA hybrid
T3 sequence (limits assumed): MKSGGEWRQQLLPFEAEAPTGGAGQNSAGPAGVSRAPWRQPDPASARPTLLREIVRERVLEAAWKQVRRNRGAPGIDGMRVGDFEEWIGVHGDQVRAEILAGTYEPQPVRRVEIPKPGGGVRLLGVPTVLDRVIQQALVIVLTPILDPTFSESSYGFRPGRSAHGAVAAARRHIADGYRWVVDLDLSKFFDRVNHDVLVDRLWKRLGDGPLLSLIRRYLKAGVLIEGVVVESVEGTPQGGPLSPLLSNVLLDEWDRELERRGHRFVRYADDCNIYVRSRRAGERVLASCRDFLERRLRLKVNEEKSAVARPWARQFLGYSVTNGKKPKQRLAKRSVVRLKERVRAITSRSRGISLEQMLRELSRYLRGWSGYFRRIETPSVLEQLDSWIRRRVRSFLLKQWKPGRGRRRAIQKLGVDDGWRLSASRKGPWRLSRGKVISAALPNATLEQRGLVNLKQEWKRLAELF

MG151-88 = system: T4, MG151-88; details: primer extension gel; protein translated in vitro; protein details: Strep, RT-RNase H trim; label: 5'-FAM primer; DNA:RNA hybrid
T4 sequence (limits assumed): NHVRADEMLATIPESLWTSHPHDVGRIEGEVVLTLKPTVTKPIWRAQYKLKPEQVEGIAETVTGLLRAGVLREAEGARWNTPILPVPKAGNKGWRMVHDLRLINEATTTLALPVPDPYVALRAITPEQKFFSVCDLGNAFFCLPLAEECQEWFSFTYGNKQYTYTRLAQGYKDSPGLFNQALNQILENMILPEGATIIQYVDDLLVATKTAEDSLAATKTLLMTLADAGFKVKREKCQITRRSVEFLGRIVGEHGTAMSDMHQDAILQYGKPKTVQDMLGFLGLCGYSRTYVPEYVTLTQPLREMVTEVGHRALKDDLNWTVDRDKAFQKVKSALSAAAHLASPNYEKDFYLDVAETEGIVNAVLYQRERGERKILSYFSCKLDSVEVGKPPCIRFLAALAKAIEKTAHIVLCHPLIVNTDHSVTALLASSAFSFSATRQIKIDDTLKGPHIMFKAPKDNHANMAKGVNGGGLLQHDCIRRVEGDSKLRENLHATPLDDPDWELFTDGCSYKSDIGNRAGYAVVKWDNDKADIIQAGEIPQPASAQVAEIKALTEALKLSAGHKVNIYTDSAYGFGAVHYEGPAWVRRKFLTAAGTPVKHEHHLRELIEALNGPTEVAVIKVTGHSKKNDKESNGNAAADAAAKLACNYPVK

MG167-1 = system: T5, MG167-1; details: primer extension gel; protein translated in vitro; protein details: N-terminal Strep; label: 5'-FAM primer; DNA:RNA hybrid
T5 sequence (limits assumed): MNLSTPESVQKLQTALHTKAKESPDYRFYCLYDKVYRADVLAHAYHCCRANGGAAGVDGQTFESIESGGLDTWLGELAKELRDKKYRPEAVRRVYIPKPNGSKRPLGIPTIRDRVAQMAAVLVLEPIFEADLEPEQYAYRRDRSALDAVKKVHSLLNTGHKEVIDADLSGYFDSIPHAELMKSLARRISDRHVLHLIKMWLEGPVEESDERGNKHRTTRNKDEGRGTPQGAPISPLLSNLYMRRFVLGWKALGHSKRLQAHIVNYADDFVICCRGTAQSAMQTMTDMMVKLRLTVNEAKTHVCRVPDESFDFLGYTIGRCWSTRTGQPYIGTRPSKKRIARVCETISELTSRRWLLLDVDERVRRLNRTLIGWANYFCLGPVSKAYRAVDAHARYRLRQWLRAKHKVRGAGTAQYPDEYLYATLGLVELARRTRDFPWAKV

Measured: activity on this sequence

GGCAAACCGCCTCTCCCCGCGCGTTGGCCGATTCATTAATGCAGCTGGCACGACAGGTTTCCCGACTGGAAAGGAGACCCGGGCAGTGAGCGCAACGGGTCTCCAATTTAAGCCAGCCCCGACACCCGCCAACACCCGCTGACGCGCCCTGACGGGCTTGTCTGCTCCCGGCATCCGCTTACAGACAAGCTGTGACCGTCTC / GAGACGGTCACAGCTTGTCTG [202-nt RNA template annealed to DNA primer]
active: MG151-93 | [1] | MG153-5 | MG153-45 | MG151-88 | MG167-1

— patent US20260193623
